# Assay results reported in patent publication EP1756142B1, “PSEUDOPEPTIDES GROWTH HORMONE SECRETAGOGUES” (Mediolanum Farmaceutici S.p.A., priority 2004, dated 2008).
# Part of at least one peptide drawing is inferred or uncertain, most often the ends.
# Tests used:
# GH release [1] = assay: GH release in vivo after subcutaneous injection in neonatal rats
# [2] = test system: human pituitary gland tissues; assay: binding affinity to human pituitary gland tissues; conditions: compared with Ghrelin, hexarelin, MK 0677 and JMV 1843
# GH release [3] = assay: stimulation of GH release in vitro
compound,measurement,setting,value
"CC(C)(N)C(=O)N[C@H](Cc1c[nH]c2ccccc12)C(=O)N[C@@H](CNOCC(N)=O)Cc1c[nH]c2ccccc12 [(IIa), Aib-D-Trp-D-Trpψ[CH2-NH-O]Gly-NH2]",stimulating the GH release in vivo,GH release [1]; in vivo,remarkably potent
same,amount of growth hormone released,"GH release [1]; neonatal rats, injected subcutaneously, compared with MK 0677 and hexarelin",exceeded the amount released when the standard GH secretagogues MK 0677 and hexarelin were administered
same,binding affinity,[2],comparable to that of the natural ligand Ghrelin and superior to the binding affinity of the synthetic GH secretagogues
same,stimulating the GH release in vitro,GH release [3],remarkably potent
